Among the data in article doi:10.1101/2022.02.01.475276 are binding values, retold here.

Protein sequences, listed by entry. Tags and fused reporters are not part of them. Residues count along the entry.
UniProt P35869, residues 1-287: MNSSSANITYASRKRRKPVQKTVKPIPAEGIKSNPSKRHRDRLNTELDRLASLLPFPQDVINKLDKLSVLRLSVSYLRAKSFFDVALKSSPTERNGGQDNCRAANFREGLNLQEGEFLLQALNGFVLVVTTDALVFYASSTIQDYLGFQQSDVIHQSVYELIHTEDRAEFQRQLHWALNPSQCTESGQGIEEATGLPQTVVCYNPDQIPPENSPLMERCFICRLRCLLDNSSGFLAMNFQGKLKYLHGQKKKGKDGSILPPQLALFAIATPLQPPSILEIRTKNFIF
UniProt Q61324, residues 1-481: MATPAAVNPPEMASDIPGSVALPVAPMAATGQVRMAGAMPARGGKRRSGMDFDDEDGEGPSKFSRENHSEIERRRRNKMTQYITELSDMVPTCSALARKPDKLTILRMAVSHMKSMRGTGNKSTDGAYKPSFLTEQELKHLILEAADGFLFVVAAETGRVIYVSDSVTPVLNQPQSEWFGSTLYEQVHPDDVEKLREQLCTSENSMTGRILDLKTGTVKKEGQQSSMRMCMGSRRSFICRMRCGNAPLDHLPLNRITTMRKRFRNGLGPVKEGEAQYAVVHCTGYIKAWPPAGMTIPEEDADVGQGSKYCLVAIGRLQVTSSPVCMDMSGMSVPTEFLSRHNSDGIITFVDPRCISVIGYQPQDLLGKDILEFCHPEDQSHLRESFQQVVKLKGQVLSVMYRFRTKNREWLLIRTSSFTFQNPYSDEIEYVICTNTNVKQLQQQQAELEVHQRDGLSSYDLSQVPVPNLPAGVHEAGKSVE
UniProt P27540, residues 1-362: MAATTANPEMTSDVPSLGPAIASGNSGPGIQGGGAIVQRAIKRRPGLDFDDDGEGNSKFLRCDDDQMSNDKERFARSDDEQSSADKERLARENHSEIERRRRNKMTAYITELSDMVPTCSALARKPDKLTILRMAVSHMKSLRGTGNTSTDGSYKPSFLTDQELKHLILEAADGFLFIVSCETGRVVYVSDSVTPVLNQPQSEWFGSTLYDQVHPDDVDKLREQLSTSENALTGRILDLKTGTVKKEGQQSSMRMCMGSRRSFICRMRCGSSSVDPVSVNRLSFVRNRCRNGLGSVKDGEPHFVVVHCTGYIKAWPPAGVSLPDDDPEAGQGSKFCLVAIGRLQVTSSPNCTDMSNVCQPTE

The target of assay [1] is T1, Truncated mNPAS4 (1-329) (mouse) (UniProt Q8BGD7).
T1 sequence: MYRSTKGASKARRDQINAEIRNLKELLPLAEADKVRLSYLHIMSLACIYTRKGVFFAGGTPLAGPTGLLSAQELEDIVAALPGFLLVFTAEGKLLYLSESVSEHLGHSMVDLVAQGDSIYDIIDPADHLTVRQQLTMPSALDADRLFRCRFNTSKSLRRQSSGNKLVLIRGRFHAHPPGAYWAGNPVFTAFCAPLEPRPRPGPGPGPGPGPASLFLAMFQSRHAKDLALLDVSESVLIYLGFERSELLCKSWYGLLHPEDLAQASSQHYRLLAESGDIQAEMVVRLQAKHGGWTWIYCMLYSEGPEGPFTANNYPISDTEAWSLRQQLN
Nature of the assay: co-purification of co-expressed proteins.

Assay [2] concerns the target 6xHis-TEV-hAhR(1-287) (human) (UniProt P35869). Nature of the assay: co-purification of co-expressed proteins.

Results are given in words; binding and its absence hold for the method and conditions named. Some binding calls cover weakened binding; strength is not graded here.

In the case of “mARNT2 (1-481) (from UniProt Q61324 1-481) (domain or fragment)”, the binding result in assay [1] is on record as “binds”.
Regarding “hARNT(1-362) (from UniProt P27540 1-362) (domain or fragment)”, in assay [2], the binding result was “binds”.
